Taken from: PubChem BioAssay AID743121 (NCATS, 2013)

Test: 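Partners whose loss is lethal together with topoisomerase I blockade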 (primary screen)
Cell system: MDA-MB-231 cells, a human breast cancer line
Reagent: single siRNA against human genes, 20 nM siRNA (0.8 pmol per well)
Timing: 120 h (drug added 48 h after transfection, read 72 h later)
Challenge: camptothecin 20 nM (about EC30) for 72 h; vehicle 0.1% DMSO in parallel plates
Measurement: 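CellTiter-Glo ATP signal, scaled to control siRNA as percent viability; sensitisation given as log2 of untreated divided by camptothecin-treated viability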
Scale: log2 vehicle/camptothecin viability: higher = stronger sensitisation to camptothecin; viability with camptothecin and viability without drug: higher = more viable cells
Hit rule: 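Active genes have an RSA gene-level p-value below 0.001, computed from the ratios of their separate siRNAs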
Here is one part, drawn at random, of about 26,000 reagents tested. 167 of them (0.63%) count as active. 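Calls are per gene from RSA p-values that are not deposited; an individual active-marked siRNA can sensitise only weakly.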 Entries without a mark were called inactive. Reagents against one gene are numbered here. Reagent sequences are not shown.

target,reagent,log2 vehicle/camptothecin viability,viability with camptothecin (% of control),viability without drug (% of control)
CNKSR1 (GeneID 10256),1,-0.328,72,57.4
CNKSR1 (GeneID 10256),2,0.626,26.6,41.1
CNKSR1 (GeneID 10256),3,-0.376,86.7,66.8
CNKSR1 (GeneID 10256),4,-0.613,102,66.5
PPP2CB (GeneID 5516),1,-0.391,80.6,61.5
PPP2CB (GeneID 5516),2,-0.59,35.6,23.6
PPP2CB (GeneID 5516),3,-0.406,47.9,36.1
PPP2CB (GeneID 5516),4,-0.343,118,92.7
S1PR4 (GeneID 8698),1,-0.467,90.1,65.2
S1PR4 (GeneID 8698),2,-0.379,5.34,4.11
S1PR4 (GeneID 8698),3,0.623,56.9,87.7
S1PR4 (GeneID 8698),4,-0.176,85,75.3
LANCL2 (GeneID 55915),1,-0.0821,95.7,90.4
LANCL2 (GeneID 55915),2,0.808,34.4,60.2
LANCL2 (GeneID 55915),3,0.00529,96.8,97.1
LANCL2 (GeneID 55915),4,0.172,88.8,100
TAS2R5 (GeneID 54429),1,-0.189,106,92.8
TAS2R5 (GeneID 54429),2,-0.407,79.9,60.3
TAS2R5 (GeneID 54429),3,-0.724,111,66.9
TAS2R5 (GeneID 54429),4,0.296,63.2,77.6
SPN (GeneID 6693),1,-0.209,108,93.2
SPN (GeneID 6693),2,0.384,39.2,51.2
SPN (GeneID 6693),3,-0.239,83.3,70.6
SPN (GeneID 6693),4,-0.0416,57.9,56.3
APTX (GeneID 54840),1,-0.232,51.7,44
APTX (GeneID 54840),2,-0.516,122,85.4
APTX (GeneID 54840),3,0.00798,96.4,96.9
YEATS4 (GeneID 8089),1,-0.517,75.5,52.8
YEATS4 (GeneID 8089),2,1.05,43.8,90.5
YEATS4 (GeneID 8089),3,0.00372,68.1,68.3
MSN (GeneID 4478),1,0.385,63.9,83.5
MSN (GeneID 4478),2,0.194,71.4,81.7
MSN (GeneID 4478),3,-0.707,79.5,48.7
MSN (GeneID 4478),4,0.495,54,76.1
PRSS8 (GeneID 5652),1,0.375,64.7,83.9
PRSS8 (GeneID 5652),2,-0.617,40.7,26.6
PRSS8 (GeneID 5652),3,-0.0532,47.6,45.9
PRSS8 (GeneID 5652),4,-0.341,64.2,50.7
ADGRF1 (GeneID 266977),1,-0.0957,102,95.7
ADGRF1 (GeneID 266977),2,-0.0478,91.2,88.3
ADGRF1 (GeneID 266977),3,-0.406,93.7,70.7
ADGRF1 (GeneID 266977),4,0.0825,72.2,76.5
ADGRG7 (GeneID 84873),1,-0.164,72,64.3
ADGRG7 (GeneID 84873),2,0.403,59.6,78.8
ADGRG7 (GeneID 84873),3,-0.366,129,100
ADGRG7 (GeneID 84873),4,-0.258,88.2,73.7
CDK19 (GeneID 23097),1,0.00214,99.3,99.4
CDK19 (GeneID 23097),2,-0.211,63.2,54.6
CDK19 (GeneID 23097),3,-0.232,121,103
CDK19 (GeneID 23097),4,-0.22,78.5,67.4
P2RX4 (GeneID 5025),1,-0.524,64.4,44.8
P2RX4 (GeneID 5025),2,-0.0912,91.1,85.5
P2RX4 (GeneID 5025),3,0.0993,80.4,86.2
GNG8 (GeneID 94235),1,0.308,3.69,4.56
GNG8 (GeneID 94235),2,-0.195,44.8,39.2
GNG8 (GeneID 94235),3,-0.324,103,82
GNG8 (GeneID 94235),4,0.00943,50.7,51
RTP1 (GeneID 132112),1,-0.0778,76.5,72.4
RTP1 (GeneID 132112),2,-0.521,92.7,64.6
RTP1 (GeneID 132112),3,-0.101,113,105
CRYGB (GeneID 1419),1,-0.0802,58.1,54.9
CRYGB (GeneID 1419),2,-0.0667,97.4,93
CRYGB (GeneID 1419),3,-0.143,118,107
CRYGB (GeneID 1419),4,-0.00281,96.4,96.2
ANKRD30A (GeneID 91074),1,-0.478,44.6,32
ANKRD30A (GeneID 91074),2,-0.177,115,102
ANKRD30A (GeneID 91074),3,0.272,67.2,81.1
ANKRD30A (GeneID 91074),4,-0.375,61.7,47.6
RC3H1 (GeneID 149041),1,-0.475,67.8,48.8
RC3H1 (GeneID 149041),2,0.0381,61.3,63
RC3H1 (GeneID 149041),3,-0.263,136,113
RC3H1 (GeneID 149041),4,-0.197,94.5,82.4
IFNA14 (GeneID 3448),1,-0.0406,49.6,48.2
IFNA14 (GeneID 3448),2,-0.309,95.2,76.8
IFNA14 (GeneID 3448),3,-0.276,66.5,55
TRIP13 (GeneID 9319),1,0.144,81.2,89.8
TRIP13 (GeneID 9319),2,-0.217,68.3,58.8
TRIP13 (GeneID 9319),3,-0.45,90.8,66.4
TRIP13 (GeneID 9319),4,0.138,97.2,107
DES (GeneID 1674),1,-0.64,99.8,64
DES (GeneID 1674),2,-0.578,86.6,58
DES (GeneID 1674),3,-0.147,91.8,82.9
DES (GeneID 1674),4,0.167,31,34.8
TWIST2 (GeneID 117581),1,-0.105,98,91.1
TWIST2 (GeneID 117581),2,0.372,73.8,95.5
TWIST2 (GeneID 117581),3,-0.702,1.13,0.696
TWIST2 (GeneID 117581),4,-0.473,98.9,71.2

No new results follow: an excerpt of the list.
target,reagent,log2 vehicle/camptothecin viability,viability with camptothecin (% of control),viability without drug (% of control)
PPP2CB (GeneID 5516),3,-0.406,47.9,36.1
PPP2CB (GeneID 5516),4,-0.343,118,92.7
S1PR4 (GeneID 8698),1,-0.467,90.1,65.2
S1PR4 (GeneID 8698),2,-0.379,5.34,4.11
S1PR4 (GeneID 8698),3,0.623,56.9,87.7
S1PR4 (GeneID 8698),4,-0.176,85,75.3
LANCL2 (GeneID 55915),1,-0.0821,95.7,90.4
LANCL2 (GeneID 55915),2,0.808,34.4,60.2
